Reference: PubChem BioAssay AID1259254 (NCATS, 2017)
Aim: 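Genome-wide screen for genes that prevent DNA re-replication in cancer cells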 (primary screen). Cells: human HCT116 colorectal cancer cells. Reagent: single siRNA against human genes. Time to read-out: 3 days. Read-out: 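Nuclei stained with Hoechst and imaged; cell-cycle phase assigned by DNA content; G2 share scaled per plate, non-targeting siRNA 0%, GMNN siRNA 100%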. Direction: G2 robust z-score and G2 cells, % of GMNN control: higher = more G2 cells, more excess DNA replication; raw share of cells in G2: higher = larger share of cells with G2 DNA content. Call rule: 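An siRNA counts as active if its G2 robust z-score lies at least 5 MADs above the screen median; here such calls match roughly 38% of GMNN control or more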.
This is one part, drawn at random, of about 59,000 deposited reagents. Over the whole deposit, about 1,550 (2.6%) got an active call. 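G2 share is only a proxy for re-replication; each gene was hit by three separate siRNAs, and active genes were retested.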 Raw values vary from plate to plate and are shown uncorrected. Entries without a mark were called inactive. The numbers tell different reagents against one gene apart. The record does not give: the amount of reagent.

gene knocked down | reagent | G2 robust z-score | G2 cells, % of GMNN control | raw share of cells in G2 (%)
PKD2L1 | 1 | -0.333 | 0.625 | 5.52
PKD2L1 | 2 | -0.466 | -0.311 | 4.68
PKD2L1 | 3 | 0.109 | 3.74 | 5.83
PRRC2C (proline rich coiled-coil 2C) | 1 | -1.27 | -5.93 | 2.66
PRRC2C (proline rich coiled-coil 2C) | 2 | -0.235 | 1.32 | 4.68
PRRC2C (proline rich coiled-coil 2C) | 3 | -0.839 | -2.94 | 2.08
INTS13 (integrator complex subunit 13) | 1 | 0.00877 | 3.03 | 5.69
INTS13 (integrator complex subunit 13) | 2 | 1.16 | 11.1 | 8.74
INTS13 (integrator complex subunit 13) | 3 | -0.955 | -3.75 | 1.94
CCNYL1 (cyclin Y like 1) | 1 | 4.28 | 33.1 | 14.9
CCNYL1 (cyclin Y like 1) | 2 | 1.87 | 16.1 | 7.9
CCNYL1 (cyclin Y like 1) | 3 | 2.53 | 20.7 | 10.3
DYRK3 (dual specificity tyrosine phosphorylation regulated kinase 3) | 1 | -1.21 | -5.55 | 3.77
DYRK3 (dual specificity tyrosine phosphorylation regulated kinase 3) | 2 | -1.36 | -6.61 | 3.18
DYRK3 (dual specificity tyrosine phosphorylation regulated kinase 3) | 3 | -0.596 | -1.22 | 3.59
MSLN (mesothelin) | 1 | -1.08 | -4.67 | 1.98
MSLN (mesothelin) | 2 | 4.83 | 37 | 22.4
MSLN (mesothelin) | 3 | -0.0951 | 2.3 | 4.3
PIK3R5 (phosphoinositide-3-kinase regulatory subunit 5) | 1 | -0.403 | 0.134 | 4.2
PIK3R5 (phosphoinositide-3-kinase regulatory subunit 5) | 2 | 0.202 | 4.39 | 8.13
PIK3R5 (phosphoinositide-3-kinase regulatory subunit 5) | 3 | 0.729 | 8.1 | 6.64
ACD | 1 | 1.49 | 13.4 | 6.24
ACD | 2 | 0.573 | 7 | 7.63
ACD | 3 | 2.59 | 21.2 | 14.1
ESYT2 (extended synaptotagmin 2) | 1 | -0.635 | -1.5 | 3.75
ESYT2 (extended synaptotagmin 2) | 2 | -0.452 | -0.211 | 4.36
ESYT2 (extended synaptotagmin 2) | 3 | -0.977 | -3.91 | 1.79
FRRS1L (ferric chelate reductase 1 like) | 1 | 2.5 | 20.5 | 12.1
FRRS1L (ferric chelate reductase 1 like) | 2 | -0.443 | -0.147 | 3.88
FRRS1L (ferric chelate reductase 1 like) | 3 | 2.08 | 17.6 | 9.45
OR10C1 (olfactory receptor family 10 subfamily C member 1) | 1 | -0.155 | 1.87 | 4.35
OR10C1 (olfactory receptor family 10 subfamily C member 1) | 2 | 0.992 | 9.94 | 7.19
OR10C1 (olfactory receptor family 10 subfamily C member 1) | 3 | 0.702 | 7.91 | 5.81
DYSF (dysferlin) | 1 | -0.819 | -2.79 | 2.6
DYSF (dysferlin) | 2 | 12.3 (active) | 89.4 | 45.8
DYSF (dysferlin) | 3 | -0.316 | 0.743 | 3.65
CSRP3 (cysteine and glycine rich protein 3) | 1 | 0.117 | 3.79 | 7.2
CSRP3 (cysteine and glycine rich protein 3) | 2 | -0.904 | -3.4 | 3
CSRP3 (cysteine and glycine rich protein 3) | 3 | 0.295 | 5.05 | 6.14
DUSP29 (dual specificity phosphatase 29) | 1 | 0.185 | 4.27 | 6.18
DUSP29 (dual specificity phosphatase 29) | 2 | 4.57 | 35.2 | 14.9
DUSP29 (dual specificity phosphatase 29) | 3 | 0.0179 | 3.09 | 4.43
GOSR2 (golgi SNAP receptor complex member 2) | 1 | 0.423 | 5.94 | 5.5
GOSR2 (golgi SNAP receptor complex member 2) | 2 | -0.312 | 0.774 | 6.33
GOSR2 (golgi SNAP receptor complex member 2) | 3 | -0.237 | 1.3 | 3.88
NRSN2 (neurensin 2) | 1 | 0.161 | 4.1 | 6.15
NRSN2 (neurensin 2) | 2 | 0.34 | 5.36 | 6.65
NRSN2 (neurensin 2) | 3 | -0.454 | -0.228 | 2.31

Sorted by “G2 robust z-score” (ascending): 7 of the entries above.
gene knocked down | reagent | G2 robust z-score | G2 cells, % of GMNN control | raw share of cells in G2 (%)
CSRP3 (cysteine and glycine rich protein 3) | 2 | -0.904 | -3.4 | 3
DYSF (dysferlin) | 1 | -0.819 | -2.79 | 2.6
DYSF (dysferlin) | 3 | -0.316 | 0.743 | 3.65
CSRP3 (cysteine and glycine rich protein 3) | 1 | 0.117 | 3.79 | 7.2
DUSP29 (dual specificity phosphatase 29) | 1 | 0.185 | 4.27 | 6.18
CSRP3 (cysteine and glycine rich protein 3) | 3 | 0.295 | 5.05 | 6.14
DYSF (dysferlin) | 2 | 12.3 (active) | 89.4 | 45.8
